± gives the standard deviation of the averaged measurements. The entries are a selection whose mix differs from that of the whole data set.

Protein sequences, listed by entry. Tags and fused reporters are not part of them. Lines headed by an entry give the natural chain unless they say otherwise; changes in a name come on top.
UniProt P30566: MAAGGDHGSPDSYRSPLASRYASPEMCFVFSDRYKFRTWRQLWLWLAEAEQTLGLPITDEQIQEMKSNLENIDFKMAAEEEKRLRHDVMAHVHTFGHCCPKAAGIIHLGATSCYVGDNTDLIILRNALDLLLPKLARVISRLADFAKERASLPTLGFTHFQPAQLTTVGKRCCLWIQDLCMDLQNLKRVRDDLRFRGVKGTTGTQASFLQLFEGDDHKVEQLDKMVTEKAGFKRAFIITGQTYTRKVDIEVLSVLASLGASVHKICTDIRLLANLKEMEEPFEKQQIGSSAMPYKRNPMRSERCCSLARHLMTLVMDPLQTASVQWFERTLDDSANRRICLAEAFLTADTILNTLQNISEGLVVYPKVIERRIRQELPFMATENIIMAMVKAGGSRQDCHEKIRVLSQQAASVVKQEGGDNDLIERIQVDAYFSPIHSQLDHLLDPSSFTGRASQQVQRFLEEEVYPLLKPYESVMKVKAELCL
UniProt P22570: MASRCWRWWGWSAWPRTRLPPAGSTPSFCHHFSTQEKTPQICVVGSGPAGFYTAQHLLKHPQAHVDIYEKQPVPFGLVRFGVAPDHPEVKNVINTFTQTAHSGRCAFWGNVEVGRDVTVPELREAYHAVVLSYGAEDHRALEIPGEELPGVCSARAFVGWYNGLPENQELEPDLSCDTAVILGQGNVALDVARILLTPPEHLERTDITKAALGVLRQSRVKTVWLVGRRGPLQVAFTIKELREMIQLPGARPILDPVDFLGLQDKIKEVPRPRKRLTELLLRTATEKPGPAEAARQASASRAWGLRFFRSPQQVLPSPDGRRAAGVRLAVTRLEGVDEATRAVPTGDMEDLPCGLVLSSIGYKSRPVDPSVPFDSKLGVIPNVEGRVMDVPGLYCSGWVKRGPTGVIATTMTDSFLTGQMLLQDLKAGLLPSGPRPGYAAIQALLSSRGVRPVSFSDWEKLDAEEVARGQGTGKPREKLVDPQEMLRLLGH
UniProt O94953: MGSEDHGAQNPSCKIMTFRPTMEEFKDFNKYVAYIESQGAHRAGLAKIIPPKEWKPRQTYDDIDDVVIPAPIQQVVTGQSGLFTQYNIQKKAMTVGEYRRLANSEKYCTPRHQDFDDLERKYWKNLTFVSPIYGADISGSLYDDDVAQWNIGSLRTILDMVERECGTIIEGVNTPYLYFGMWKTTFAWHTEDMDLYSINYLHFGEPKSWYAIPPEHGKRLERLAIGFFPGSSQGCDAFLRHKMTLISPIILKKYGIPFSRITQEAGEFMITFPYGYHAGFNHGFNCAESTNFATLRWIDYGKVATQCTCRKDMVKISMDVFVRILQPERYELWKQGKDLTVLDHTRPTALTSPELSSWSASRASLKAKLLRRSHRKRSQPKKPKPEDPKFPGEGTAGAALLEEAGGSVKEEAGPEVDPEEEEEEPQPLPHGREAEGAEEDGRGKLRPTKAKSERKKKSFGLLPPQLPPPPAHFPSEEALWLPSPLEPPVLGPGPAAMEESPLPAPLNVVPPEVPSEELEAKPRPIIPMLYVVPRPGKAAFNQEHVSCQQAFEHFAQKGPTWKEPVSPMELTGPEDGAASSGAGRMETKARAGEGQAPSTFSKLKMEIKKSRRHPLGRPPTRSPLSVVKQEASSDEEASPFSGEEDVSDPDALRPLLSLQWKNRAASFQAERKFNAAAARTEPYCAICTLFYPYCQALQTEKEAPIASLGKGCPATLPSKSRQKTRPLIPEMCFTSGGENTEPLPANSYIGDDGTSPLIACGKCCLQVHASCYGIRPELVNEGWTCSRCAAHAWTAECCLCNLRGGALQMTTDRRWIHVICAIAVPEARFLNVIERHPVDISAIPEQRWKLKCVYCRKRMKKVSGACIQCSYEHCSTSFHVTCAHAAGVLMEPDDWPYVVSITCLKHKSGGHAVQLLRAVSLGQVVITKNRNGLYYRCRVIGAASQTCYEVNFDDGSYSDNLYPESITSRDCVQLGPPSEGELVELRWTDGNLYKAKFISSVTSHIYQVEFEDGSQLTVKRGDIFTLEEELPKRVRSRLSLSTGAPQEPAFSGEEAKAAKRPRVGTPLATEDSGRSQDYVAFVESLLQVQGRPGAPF
UniProt Q8N2M8: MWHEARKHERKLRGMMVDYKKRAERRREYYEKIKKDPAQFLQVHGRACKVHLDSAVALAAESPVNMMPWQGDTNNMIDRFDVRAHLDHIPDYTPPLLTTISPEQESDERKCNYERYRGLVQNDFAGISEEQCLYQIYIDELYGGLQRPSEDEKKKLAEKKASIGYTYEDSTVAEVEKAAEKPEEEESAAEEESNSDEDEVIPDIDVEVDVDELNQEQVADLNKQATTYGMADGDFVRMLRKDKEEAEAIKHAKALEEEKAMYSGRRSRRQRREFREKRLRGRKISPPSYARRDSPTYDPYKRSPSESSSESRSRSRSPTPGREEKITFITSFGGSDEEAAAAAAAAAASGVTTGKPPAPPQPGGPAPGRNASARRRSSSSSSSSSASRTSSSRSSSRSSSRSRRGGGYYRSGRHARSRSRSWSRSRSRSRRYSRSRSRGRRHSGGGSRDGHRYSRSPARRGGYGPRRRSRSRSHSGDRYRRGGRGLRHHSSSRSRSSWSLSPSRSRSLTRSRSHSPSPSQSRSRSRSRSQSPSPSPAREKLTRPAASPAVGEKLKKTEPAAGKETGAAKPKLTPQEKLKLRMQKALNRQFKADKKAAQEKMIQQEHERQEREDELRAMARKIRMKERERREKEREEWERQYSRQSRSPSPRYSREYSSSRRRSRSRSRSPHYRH
UniProt Q00610: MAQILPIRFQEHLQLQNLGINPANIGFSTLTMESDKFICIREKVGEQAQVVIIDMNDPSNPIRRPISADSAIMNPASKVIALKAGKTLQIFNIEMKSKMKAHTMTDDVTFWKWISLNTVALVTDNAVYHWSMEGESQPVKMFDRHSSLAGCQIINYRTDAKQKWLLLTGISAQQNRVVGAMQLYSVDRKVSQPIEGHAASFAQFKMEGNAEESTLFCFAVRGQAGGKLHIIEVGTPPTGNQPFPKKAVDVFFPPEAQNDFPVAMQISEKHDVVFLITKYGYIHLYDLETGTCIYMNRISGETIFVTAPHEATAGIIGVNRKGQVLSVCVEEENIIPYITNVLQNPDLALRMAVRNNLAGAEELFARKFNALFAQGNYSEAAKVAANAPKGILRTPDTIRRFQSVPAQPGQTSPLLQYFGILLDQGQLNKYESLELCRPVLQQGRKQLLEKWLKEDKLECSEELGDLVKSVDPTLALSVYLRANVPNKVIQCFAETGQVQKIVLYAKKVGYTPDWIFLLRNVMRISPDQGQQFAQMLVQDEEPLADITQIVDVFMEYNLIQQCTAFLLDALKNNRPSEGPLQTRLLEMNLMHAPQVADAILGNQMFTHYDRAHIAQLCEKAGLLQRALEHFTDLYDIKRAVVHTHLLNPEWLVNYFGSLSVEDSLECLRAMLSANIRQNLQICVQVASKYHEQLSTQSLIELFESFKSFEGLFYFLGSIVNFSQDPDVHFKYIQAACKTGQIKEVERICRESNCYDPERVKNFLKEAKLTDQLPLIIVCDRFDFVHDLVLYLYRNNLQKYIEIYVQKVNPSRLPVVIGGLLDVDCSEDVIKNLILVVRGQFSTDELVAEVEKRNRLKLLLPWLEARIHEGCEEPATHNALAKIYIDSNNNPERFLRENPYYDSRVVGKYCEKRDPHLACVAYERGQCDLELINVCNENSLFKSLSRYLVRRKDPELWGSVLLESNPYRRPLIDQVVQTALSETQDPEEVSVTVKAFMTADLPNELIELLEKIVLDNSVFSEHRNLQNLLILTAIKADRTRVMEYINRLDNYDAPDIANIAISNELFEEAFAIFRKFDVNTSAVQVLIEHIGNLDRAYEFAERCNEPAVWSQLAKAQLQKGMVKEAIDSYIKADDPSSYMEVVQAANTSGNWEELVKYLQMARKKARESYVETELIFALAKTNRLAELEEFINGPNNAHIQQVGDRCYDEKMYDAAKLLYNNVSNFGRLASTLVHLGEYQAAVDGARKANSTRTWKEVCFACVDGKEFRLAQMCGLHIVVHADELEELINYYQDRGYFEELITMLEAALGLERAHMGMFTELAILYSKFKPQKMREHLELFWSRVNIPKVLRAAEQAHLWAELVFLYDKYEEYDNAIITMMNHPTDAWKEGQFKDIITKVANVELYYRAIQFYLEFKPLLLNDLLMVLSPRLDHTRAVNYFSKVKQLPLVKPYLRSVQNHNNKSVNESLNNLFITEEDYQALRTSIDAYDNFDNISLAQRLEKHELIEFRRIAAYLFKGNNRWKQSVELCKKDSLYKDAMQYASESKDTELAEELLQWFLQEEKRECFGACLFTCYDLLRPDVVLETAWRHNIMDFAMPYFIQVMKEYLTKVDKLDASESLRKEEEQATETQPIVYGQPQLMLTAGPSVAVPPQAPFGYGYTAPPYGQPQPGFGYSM
UniProt Q9Y4X4: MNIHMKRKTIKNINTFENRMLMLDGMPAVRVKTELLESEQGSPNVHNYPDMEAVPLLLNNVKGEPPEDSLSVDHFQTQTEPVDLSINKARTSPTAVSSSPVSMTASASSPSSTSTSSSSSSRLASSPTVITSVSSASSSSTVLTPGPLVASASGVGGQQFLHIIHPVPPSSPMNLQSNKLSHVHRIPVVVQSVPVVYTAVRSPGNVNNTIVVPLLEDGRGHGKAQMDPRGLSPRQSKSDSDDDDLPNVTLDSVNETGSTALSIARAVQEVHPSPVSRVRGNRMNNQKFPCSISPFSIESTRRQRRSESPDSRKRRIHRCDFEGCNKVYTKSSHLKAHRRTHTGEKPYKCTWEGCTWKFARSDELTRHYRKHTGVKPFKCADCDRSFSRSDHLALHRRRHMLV
UniProt Q8IXK0: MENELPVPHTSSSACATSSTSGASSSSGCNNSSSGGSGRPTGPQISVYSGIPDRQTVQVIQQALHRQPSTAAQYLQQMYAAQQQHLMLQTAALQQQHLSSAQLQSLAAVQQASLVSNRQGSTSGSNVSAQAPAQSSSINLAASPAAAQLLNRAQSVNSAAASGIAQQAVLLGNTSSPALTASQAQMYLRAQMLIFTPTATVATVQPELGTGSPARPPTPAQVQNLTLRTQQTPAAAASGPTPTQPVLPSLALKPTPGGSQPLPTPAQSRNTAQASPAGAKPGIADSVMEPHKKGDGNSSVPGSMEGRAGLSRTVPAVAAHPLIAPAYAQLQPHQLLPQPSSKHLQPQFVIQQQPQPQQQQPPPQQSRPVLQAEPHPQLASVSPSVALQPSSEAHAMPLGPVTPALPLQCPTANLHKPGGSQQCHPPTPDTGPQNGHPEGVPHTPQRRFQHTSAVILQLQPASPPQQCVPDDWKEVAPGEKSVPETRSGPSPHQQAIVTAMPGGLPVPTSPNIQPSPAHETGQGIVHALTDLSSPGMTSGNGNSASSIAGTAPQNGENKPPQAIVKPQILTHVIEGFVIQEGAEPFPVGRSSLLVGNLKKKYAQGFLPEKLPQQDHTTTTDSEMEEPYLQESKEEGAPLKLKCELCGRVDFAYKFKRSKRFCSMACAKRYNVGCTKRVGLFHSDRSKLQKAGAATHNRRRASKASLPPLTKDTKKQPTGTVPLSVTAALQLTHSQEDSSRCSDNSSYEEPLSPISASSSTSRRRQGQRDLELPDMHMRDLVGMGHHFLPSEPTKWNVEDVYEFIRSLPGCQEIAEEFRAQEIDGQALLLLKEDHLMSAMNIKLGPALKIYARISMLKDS
UniProt P81877: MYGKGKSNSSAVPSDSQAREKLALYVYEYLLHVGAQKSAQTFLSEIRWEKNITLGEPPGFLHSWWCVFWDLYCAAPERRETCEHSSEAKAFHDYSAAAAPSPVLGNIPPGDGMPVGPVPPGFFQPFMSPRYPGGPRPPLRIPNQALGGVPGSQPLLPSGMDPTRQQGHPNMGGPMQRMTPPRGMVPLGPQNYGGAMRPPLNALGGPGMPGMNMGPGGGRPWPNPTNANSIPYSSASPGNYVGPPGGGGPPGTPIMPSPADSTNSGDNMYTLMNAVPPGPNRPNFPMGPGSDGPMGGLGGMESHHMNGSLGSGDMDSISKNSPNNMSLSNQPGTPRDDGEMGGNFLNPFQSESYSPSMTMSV
UniProt Q8TBC5: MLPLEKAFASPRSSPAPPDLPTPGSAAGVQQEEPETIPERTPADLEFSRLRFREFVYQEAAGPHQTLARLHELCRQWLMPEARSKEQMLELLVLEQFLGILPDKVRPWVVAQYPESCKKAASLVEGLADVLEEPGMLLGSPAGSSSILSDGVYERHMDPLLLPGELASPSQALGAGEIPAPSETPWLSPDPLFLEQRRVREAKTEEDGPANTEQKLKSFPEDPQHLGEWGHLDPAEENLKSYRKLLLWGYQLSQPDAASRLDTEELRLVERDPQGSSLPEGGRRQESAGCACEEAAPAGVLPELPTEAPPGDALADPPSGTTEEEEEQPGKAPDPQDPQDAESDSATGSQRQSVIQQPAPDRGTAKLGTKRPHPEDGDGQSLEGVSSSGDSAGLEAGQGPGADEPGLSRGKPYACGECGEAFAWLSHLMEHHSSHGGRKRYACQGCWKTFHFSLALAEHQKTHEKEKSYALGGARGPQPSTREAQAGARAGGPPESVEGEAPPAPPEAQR

Compound in the assay: Nc1ncnc2c1ncn2[C@@H]1O[C@H](COP(=O)(O)OP(=O)(O)OP(=O)(O)O)[C@@H](O)[C@H]1O [adenosine triphosphate]
Description: NP40-soluble protein abundance relative to vehicle (solubility fold change) (ratio); higher = more soluble protein in presence of ATP. Summed up:
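Crude Jurkat lysate, prepared by Dounce homogenisation, was exposed to eight concentrations from 0.1 to 10 mM for 10 min at room temperature and then 3 min at 37 °C. Solubilisation used 0.8% NP40 with benzonase for 60 min at 4 °C, followed by ultracentrifugation and TMT labelling of the supernatant for LC-MS/MS. After vsn normalisation of intensities, each value is the fold change against the detergent-processed vehicle within each replicate, across three independent experiments.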

As for A0A0A6YY92|P30566 (UniProt P30566), the NP40-soluble protein abundance reads like this: (concentration: 1mM) 0.995 ± 0.058; (concentration: 2mM) 0.987 ± 0.04; (concentration: 4mM) 0.946 ± 0.044; (concentration: 6mM) 0.959 ± 0.052; (concentration: 8mM) 0.968 ± 0.052; (concentration: 10mM) 0.96 ± 0.042.

Take “A0A0C4DFN8|P22570 and related entries (UniProt P22570)”: the NP40-soluble protein abundance stood at 1.03 ± 0.0078 (concentration: 1mM); 1.03 ± 0.017 (concentration: 2mM); 1.03 ± 0.031 (concentration: 4mM); 1.03 ± 0.06 (concentration: 6mM); 1.01 ± 0.064 (concentration: 8mM); 1.02 ± 0.038 (concentration: 10mM).

Take “A0A0C4DFL8|F5GX28 and related entries (UniProt O94953)”: the NP40-soluble protein abundance reads like this: (concentration: 1mM) 0.993 ± 0.067; (concentration: 2mM) 0.99 ± 0.019; (concentration: 4mM) 0.989 ± 0.011; (concentration: 6mM) 0.976 ± 0.038; (concentration: 8mM) 0.969 ± 0.067; (concentration: 10mM) 0.997 ± 0.049.

Regarding A0A0A0MQS2|F5H0Q6 (UniProt Q8N2M8), the NP40-soluble protein abundance (concentration: 1mM) worked out at 1.08 ± 0.17; the NP40-soluble protein abundance (concentration: 2mM) came out at 1.12 ± 0.14; the NP40-soluble protein abundance (concentration: 4mM) came to 1.13 ± 0.24; the NP40-soluble protein abundance (concentration: 6mM) was 1.26 ± 0.17; the NP40-soluble protein abundance (concentration: 8mM) is 1.17 ± 0.17; the NP40-soluble protein abundance (concentration: 10mM) is 1.18 ± 0.093.

Take A0A0A0MRV0|Q9P2E9 (UniProt Q9P2E9): the NP40-soluble protein abundance (concentration: 1mM) was 0.962 ± 0.083; the NP40-soluble protein abundance (concentration: 2mM) amounted to 0.939 ± 0.035; the NP40-soluble protein abundance (concentration: 4mM) is 0.946 ± 0.066; the NP40-soluble protein abundance (concentration: 6mM) was 1 ± 0.085; the NP40-soluble protein abundance (concentration: 8mM) turned out to be 0.979 ± 0.037; the NP40-soluble protein abundance (concentration: 10mM) was 0.929 ± 0.054.

In the case of “A0A087WVQ6|Q00610 and related entries (UniProt Q00610)”, the NP40-soluble protein abundance runs as follows: (concentration: 1mM) 1.15 ± 0.089; (concentration: 2mM) 1.14 ± 0.088; (concentration: 4mM) 1.14 ± 0.071; (concentration: 6mM) 1.11 ± 0.12; (concentration: 8mM) 1.19 ± 0.062; (concentration: 10mM) 1.15 ± 0.066.

For the target A0A0A0MRU8|Q9Y4X4 (UniProt Q9Y4X4), the NP40-soluble protein abundance turned out to be 1.06 ± 0.24 (concentration: 1mM); 1.08 ± 0.2 (concentration: 2mM); 1.04 ± 0.083 (concentration: 4mM); 1.15 ± 0.1 (concentration: 6mM); 0.968 ± 0.13 (concentration: 8mM); 1 ± 0.091 (concentration: 10mM).

Turning to “A0A0A0MSI2|B3KPJ4 and related entries (UniProt Q8IXK0)”, the NP40-soluble protein abundance by setting is: (concentration: 1mM) 1.01 ± 0.026; (concentration: 2mM) 1.1 ± 0.027; (concentration: 4mM) 1.13 ± 0.093; (concentration: 6mM) 1.21 ± 0.08; (concentration: 8mM) 1.28 ± 0.09; (concentration: 10mM) 1.42 ± 0.1.

Turning to “A0A0A0MRJ0|Q5VT25 and related entries (UniProt Q5VT25)”, the NP40-soluble protein abundance worked out at 1.26 ± 0.12 (concentration: 1mM); 1.29 ± 0.093 (concentration: 2mM); 1.47 ± 0.15 (concentration: 4mM); 1.53 ± 0.21 (concentration: 6mM); 1.44 ± 0.17 (concentration: 8mM); 1.49 ± 0.16 (concentration: 10mM).

On to “A0A0C4DGP0|E7EU35 and related entries (UniProt Q9UKF7)”, for which the NP40-soluble protein abundance by setting is: (concentration: 1mM) 1.06 ± 0.097; (concentration: 2mM) 1.04 ± 0.048; (concentration: 4mM) 1.04 ± 0.05; (concentration: 6mM) 1.02 ± 0.082; (concentration: 8mM) 1.01 ± 0.091; (concentration: 10mM) 1.06 ± 0.04.

Consider “A0A087X159|P81877 and related entries (UniProt P81877)”, for which the NP40-soluble protein abundance came to 1.06 ± 0.16 (concentration: 1mM); 0.979 ± 0.076 (concentration: 2mM); 1.09 ± 0.057 (concentration: 4mM); 1.17 ± 0.19 (concentration: 6mM); 0.936 ± 0.023 (concentration: 8mM); 0.926 ± 0.053 (concentration: 10mM).

Turning to A0A0A0MRN1|Q5T8I9 (UniProt Q5T8I9), the NP40-soluble protein abundance runs as follows: (concentration: 1mM) 0.989 ± 0.08; (concentration: 2mM) 0.983 ± 0.02; (concentration: 4mM) 1.029 ± 0.0099; (concentration: 6mM) 0.934 ± 0.012; (concentration: 8mM) 1.04 ± 0.1; (concentration: 10mM) 1.01 ± 0.1.

Consider “A0A0C4DG78|M0R3C6 and related entries (UniProt Q8TBC5)”, for which the NP40-soluble protein abundance reads like this: (concentration: 1mM) 0.959 ± 0.043; (concentration: 2mM) 0.996 ± 0.15; (concentration: 4mM) 0.93 ± 0.031; (concentration: 6mM) 0.928 ± 0.017; (concentration: 8mM) 0.884 ± 0.065; (concentration: 10mM) 0.923 ± 0.065.

Regarding “A0A0A0MS70|A0A0A0MST0|H0Y4G9 and related entries (UniProt Q99836)”, the NP40-soluble protein abundance is, setting by setting: (concentration: 1mM) 0.972 ± 0.064; (concentration: 2mM) 0.978 ± 0.044; (concentration: 4mM) 0.943 ± 0.047; (concentration: 6mM) 0.952 ± 0.08; (concentration: 8mM) 0.958 ± 0.052; (concentration: 10mM) 0.95 ± 0.067.

(Values after the supplement of paper PMC6411743.)
